The chains behind the UniProt entries cited, without tags or fusion partners. Residues count along the entry.
UniProt Q08499, 1-673 isoform 2: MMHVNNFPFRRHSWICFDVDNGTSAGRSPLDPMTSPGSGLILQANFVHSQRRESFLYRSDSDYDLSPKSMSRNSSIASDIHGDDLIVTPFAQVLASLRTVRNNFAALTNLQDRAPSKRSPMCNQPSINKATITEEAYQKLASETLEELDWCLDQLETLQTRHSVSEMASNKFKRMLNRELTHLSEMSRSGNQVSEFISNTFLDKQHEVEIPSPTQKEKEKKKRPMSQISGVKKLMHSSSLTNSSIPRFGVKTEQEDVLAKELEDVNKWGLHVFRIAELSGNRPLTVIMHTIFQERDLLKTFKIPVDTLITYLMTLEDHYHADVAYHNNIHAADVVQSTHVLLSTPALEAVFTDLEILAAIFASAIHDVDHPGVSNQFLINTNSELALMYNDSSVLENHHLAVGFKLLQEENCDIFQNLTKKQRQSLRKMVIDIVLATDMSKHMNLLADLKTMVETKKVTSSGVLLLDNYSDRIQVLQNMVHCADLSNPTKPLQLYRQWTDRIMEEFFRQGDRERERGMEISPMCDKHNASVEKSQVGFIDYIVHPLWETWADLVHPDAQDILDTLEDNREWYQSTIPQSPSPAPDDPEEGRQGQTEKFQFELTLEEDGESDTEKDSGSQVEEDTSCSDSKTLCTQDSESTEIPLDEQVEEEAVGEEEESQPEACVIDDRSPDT

According to US7468370B2, “[1,7]naphthyridines as PDE4 inhibitors” (Novartis AG, priority 2002, dated 2008):

Molecular target: human PDE4D (Homo sapiens, UniProt Q08499)
Assay: PDE4 Isoenzyme Inhibition Assay (Scintillation Proximity Assay, [3H]-cAMP)
Assay type: biochemical
Conditions: read-out: IC50 for inhibition of PDE4D; recombinant 6His-tagged human PDE4D3 expressed in Sf21 cells; 1 μM cAMP; 1% DMSO; room temperature

## O=C(O)C1CCN(c2cc3cccnc3c(-c3ccc4c(c3)OCO4)n2)CC1
  IC50: 0.014 µM

The match of structure and compound is tentative.
